Measured values taken from PubChem BioAssay AID248 (DTP/NCI, 2004).
The list does not hold the whole screen: it gathers tests that were run many times, whatever their T/C, doses with no T/C, and many T/C values between a quarter and a half above the control. Other doses and runs of a compound stand elsewhere. T/C is the treated group as % of the vehicle group. Some entries give survivors of the animals treated and no T/C: the source holds a T/C of zero for them, seemingly a mark for toxic or unscored doses. Some doses without a T/C left all or most animals alive at the check, yet need not have been tolerated: survival well below the control is almost never listed, so the zero probably covers shortened survival too. Survivors were counted at the toxicity check, usually on the fifth day, unless a day is given; later deaths do not show. Schedules are NCI's codes, read here as Q, the interval in days (D) or hours (H), X, the number of doses. Some entries hold several experiments; the results are listed from low to high. For survival time, this PubChem deposit counts one and a half times the control or more as active, and values a quarter to a half above the control carry no call in these data; other NCI protocols may use other cut-offs. Some schedules carry Z or #; the key to these is not given.

System: L1210 leukemia ip in BDF1 mice, survival T/C
Assay: NCI In Vivo Anticancer Drug Screen. Data for tumor model L1210 Leukemia (intraperitoneal) in B6D2F1 (BDF1) mice
Details: T/C endpoint: mean survival time, higher T/C = longer survival
[1] = dose: 400.0 mg/kg/injection, schedule: Q04DX002 (ip), vehicle: saline
[2] = dose: 25.0 mg/kg/injection, schedule: Q01DX009 (ip), vehicle: saline
[3] = dose: 50.0 mg/kg/injection, schedule: Q01DX009 (ip), vehicle: saline
[4] = dose: 100.0 mg/kg/injection, schedule: Q01DX009 (ip), vehicle: saline
[5] = dose: 200.0 mg/kg/injection, schedule: Q01DX009 (ip), vehicle: saline
[6] = dose: 400.0 mg/kg/injection, schedule: Q01DX009 (ip), vehicle: saline
[7] = dose: 100.0 mg/kg/injection, schedule: Q01DX001 (ip), vehicle: saline
[8] = dose: 200.0 mg/kg/injection, schedule: Q01DX001 (ip), vehicle: saline
[9] = dose: 400.0 mg/kg/injection, schedule: Q01DX001 (ip), vehicle: saline
[10] = dose: 400.0 mg/kg/injection, schedule: Q04DX003 (ip), vehicle: saline with Tween-80
[11] = dose: 300.0 mg/kg/injection, schedule: Q01DX001 (ip), vehicle: saline
[12] = dose: 200.0 mg/kg/injection, schedule: Q01DX001 (ip), vehicle: saline with Tween-80
[13] = dose: 400.0 mg/kg/injection, schedule: Q01DX009 (ip), vehicle: saline with Tween-80
[14] = dose: 100.0 mg/kg/injection, schedule: Q04DX003 (ip), vehicle: Klucel (hydroxypropylcellulose) (HPC)
[15] = dose: 200.0 mg/kg/injection, schedule: Q04DX003 (ip), vehicle: Klucel (hydroxypropylcellulose) (HPC)
[16] = dose: 400.0 mg/kg/injection, schedule: Q04DX003 (ip), vehicle: Klucel (hydroxypropylcellulose) (HPC)
[17] = dose: 200.0 mg/kg/injection, schedule: Q04DX003 (ip), vehicle: saline
[18] = dose: 400.0 mg/kg/injection, schedule: Q04DX003 (ip), vehicle: saline
[19] = dose: 100.0 mg/kg/injection, schedule: Q04DX003 (ip), vehicle: saline

Nc1nc(N)c(-c2ccc(Cl)c(Cl)c2)c(CCc2ccc(S(=O)(=O)F)cc2)n1
survivor count (dose: 400.0 mg/kg/injection, schedule: Q01DX009 (ip), vehicle: Klucel (hydroxypropylcellulose) (HPC)): 4 of 6

Clc1nccnc1C(Cl)(Cl)Cl
survivor count (dose: 200.0 mg/kg/injection, schedule: Q01DX009 (ip), vehicle: other): 2 of 3

C[n+]1ccccc1C=O
survivor count [1]: 2 of 3

CC1CC[N+]2(C)CCCC12 (stereo not given)
survivor count [2]: 0 of 3 | survivor count [3]: 0 of 3 | survivor count [4]: 0 of 3 | survivor count [5]: 0 of 3

CC(=O)OCC[N+](C)(C)CCCCC[N+](C)(C)CCOC(C)=O
survivor count [6]: 1 of 6

CC1CC([P+](c2ccccc2)(c2ccccc2)c2ccccc2)=NN1CC[P+](c1ccccc1)(c1ccccc1)c1ccccc1 (stereo not given)
survivor count (dose: 25.0 mg/kg/injection, schedule: Q01DX001 (ip), vehicle: saline): 0 of 6 | survivor count (dose: 50.0 mg/kg/injection, schedule: Q01DX001 (ip), vehicle: saline): 0 of 6 | survivor count [7]: 0 of 6 | survivor count [8]: 0 of 6 | survivor count [9]: 0 of 6

OCC1OC(c2ccccc2)OC(CO)C(O)C1O (stereo not given)
survivor count [10]: 6 of 6

C=C(Cl)CSC(=S)N(C)C
survivor count [5]: 2 of 3

C/C=C/C=C\COC(=O)C1CCCC1
T/C [1]: 128 % of control

CCC(CC)C[N+](C)(C)C
survivor count [11]: 1 of 6

C=C1C(=O)OC2CCC(O)C12 (stereo not given)
survivor count [8]: 1 of 7

NOCc1ccc(OCc2ccccc2)cc1
survivor count (dose: 400.0 mg/kg/injection, schedule: Q04DX003 (ip), vehicle: acetone): 0 of 6

S=c1nc[nH]c2c1ncn2C1CCCO1 (stereo not given)
T/C (dose: 22.2 mg/kg/injection, schedule: Q01DX Z (ip), vehicle: methylcellulose (MC)): 129 % of control | T/C (dose: 33.3 mg/kg/injection, schedule: Q01DX Z (ip), vehicle: methylcellulose (MC)): 134 % of control | T/C (dose: 50.0 mg/kg/injection, schedule: Q01DX Z (ip), vehicle: methylcellulose (MC)): 131 % of control

CCCCCCCCCCCCc1ccc(/C(C)=N/NC(=O)c2ccc[n+](C)c2)cc1
survivor count [12]: 0 of 6 | survivor count (dose: 400.0 mg/kg/injection, schedule: Q01DX001 (ip), vehicle: saline with Tween-80): 0 of 6

Cc1cc([N+](=O)[O-])ccc1N=O
survivor count (dose: 100.0 mg/kg/injection, schedule: Q01DX009 (ip), vehicle: saline with Tween-80): 5 of 6 | survivor count (dose: 200.0 mg/kg/injection, schedule: Q01DX009 (ip), vehicle: saline with Tween-80): 6 of 6 | survivor count [13]: 6 of 6

CC1CC(OC(=O)CCN2CC2)CC(C)(C)C1 (stereo not given)
survivor count (dose: 10.0 mg/kg/injection, schedule: Q01DX009 (ip), vehicle: Klucel (hydroxypropylcellulose) (HPC)): 5 of 6 | survivor count (dose: 80.0 mg/kg/injection, schedule: Q01DX009 (ip), vehicle: Klucel (hydroxypropylcellulose) (HPC)): 3 of 6 | survivor count [14]: 5 of 6 | survivor count [15]: 5 of 6 | survivor count [16]: 1 of 6

Nc1nc(N)nc(COc2ccccc2Cl)n1
survivor count (dose: 400.0 mg/kg/injection, schedule: Q04DX002 (ip), vehicle: Klucel (hydroxypropylcellulose) (HPC)): 3 of 3

N#CC1C2CCC(C2)C1CCCN (stereo not given)
survivor count [17]: 0 of 6 | survivor count [18]: 0 of 6

ClCc1ccc(CCl)cc1
survivor count (dose: 335.0 mg/kg/injection, schedule: Q04DX003 (ip), vehicle: Klucel (hydroxypropylcellulose) (HPC)): 1 of 6

O=C(Nc1ccc(Cl)c(Cl)c1)OCCCl
survivor count [11]: 3 of 6

CC(=O)Nc1ccc(-c2ccccc2)cc1
survivor count (dose: 400.0 mg/kg/injection, schedule: Q01DX001 (ip), vehicle: Klucel (hydroxypropylcellulose) (HPC)): 1 of 6 | survivor count [13]: 0 of 6

O=C1NC(=O)C2(CCCCC2)N1
survivor count (dose: 50.0 mg/kg/injection, schedule: Q01DX009 (ip), vehicle: Klucel (hydroxypropylcellulose) (HPC)): 2 of 6 | survivor count (dose: 100.0 mg/kg/injection, schedule: Q01DX009 (ip), vehicle: Klucel (hydroxypropylcellulose) (HPC)): 0 of 6 | survivor count [14]: 5 of 6 and 6 of 6 | survivor count [19]: 4 of 6 | survivor count (dose: 115.0 mg/kg/injection, schedule: Q01DX009 (ip), vehicle: Klucel (hydroxypropylcellulose) (HPC)): 6 of 6 | survivor count (dose: 170.0 mg/kg/injection, schedule: Q01DX009 (ip), vehicle: Klucel (hydroxypropylcellulose) (HPC)): 0 of 6 | survivor count (dose: 200.0 mg/kg/injection, schedule: Q01DX009 (ip), vehicle: Klucel (hydroxypropylcellulose) (HPC)): 0 of 6 | survivor count [15]: 5 of 6 | survivor count [17]: 0 of 6 | survivor count [16]: 0 of 6 | survivor count [18]: 0 of 6

COc1ccc(CN2CC(C)N(N)C(C)C2)cc1 (stereo not given)
survivor count (dose: 50.0 mg/kg/injection, schedule: Q01DX005 (ip), vehicle: saline): 0 of 3 | survivor count (dose: 200.0 mg/kg/injection, schedule: Q01DX005 (ip), vehicle: saline): 0 of 3 | survivor count (dose: 400.0 mg/kg/injection, schedule: Q01DX005 (ip), vehicle: saline): 0 of 3

CC(C)(C)OC(=O)CCN1CC1
survivor count [11]: 0 of 6

CC(C)(C)[Se]C(=N)N
survivor count (dose: 100.0 mg/kg/injection, schedule: Q01DX001 (ip), vehicle: saline with Tween-80): 0 of 6 | survivor count [12]: 0 of 6

CC(C)(C)OC(=O)CNC(=O)C(Cc1ccccc1)NC(=O)C(N)CSC(c1ccccc1)(c1ccccc1)c1ccccc1 (stereo not given)
T/C (dose: 600.0 mg/kg/injection, schedule: Q01DX001 (ip), vehicle: carboxymethylcellulose (CMC)): 126 % of control | survivor count (dose: 600.0 mg/kg/injection, schedule: Q01DX001 (ip), vehicle: saline): 3 of 6

CCCCOB(OCCCC)c1cccc(C(F)(F)F)c1
survivor count [6]: 0 of 6

c1ccc([S+]([CH2][Hg][CH2][S+](c2ccccc2)c2ccccc2)c2ccccc2)cc1
survivor count (dose: 40.0 mg/kg/injection, schedule: Q01DX001 (ip), vehicle: saline): 0 of 6 | survivor count (dose: 80.0 mg/kg/injection, schedule: Q01DX001 (ip), vehicle: saline): 0 of 6 | survivor count [7]: 0 of 6 | survivor count [8]: 0 of 6 | survivor count [9]: 0 of 6

CCCCCCCCCCNC(=O)CI
survivor count [9]: 0 of 4

O=C(Nc1ccc([N+](=O)[O-])cc1O)c1ccccc1
survivor count [10]: 6 of 6

O=C(NCCCN1CC1)C(=O)NCCCN1CC1
T/C (dose: 3.5 mg/kg/injection, schedule: Q04DX003 (ip), vehicle: Klucel (hydroxypropylcellulose) (HPC)): 134 % of control | T/C (dose: 5.3 mg/kg/injection, schedule: Q04DX003 (ip), vehicle: Klucel (hydroxypropylcellulose) (HPC)): 129 % of control | T/C (dose: 6.25 mg/kg/injection, schedule: Q04DX003 (ip), vehicle: Klucel (hydroxypropylcellulose) (HPC)): 127 % of control | survivor count [2]: 2 of 6 | survivor count [3]: 0 of 6 | survivor count [4]: 0 of 6 | survivor count [14]: 0 of 6 | survivor count [15]: 0 of 6 | survivor count [16]: 0 of 6

C/C=N\NC(N)=O
survivor count [19]: 0 of 6 and 1 of 6 | survivor count [17]: 0 of 6 | survivor count [18]: 0 of 6

CCCCN(CCCCS(=O)(=O)O)c1ccc(N=Nc2cc(Cl)ccc2Cl)cc1
survivor count [16]: 1 of 6

O=C(Nc1ccc(C2=NCCN2)cc1)c1cccc(C(=O)Nc2ccc(C3=NCCN3)cc2)n1
T/C (dose: 120.0 mg/kg/injection, schedule: Q01DX Z (ip), vehicle: methylcellulose (MC)): 129 and 136 % of control
